Results on one molecule are retold here after PMC7459631.

No constants are given. Whether binding was seen depends on the method and setting. In cells and extracts the contact can be indirect. Some binding calls cover weakened binding; strength is not graded here. Sequences can lack the tags named with a protein.

For the assay, the target named is T1, mWasabi-tagged ANT2 (human) (UniProt P05141).
T1 sequence: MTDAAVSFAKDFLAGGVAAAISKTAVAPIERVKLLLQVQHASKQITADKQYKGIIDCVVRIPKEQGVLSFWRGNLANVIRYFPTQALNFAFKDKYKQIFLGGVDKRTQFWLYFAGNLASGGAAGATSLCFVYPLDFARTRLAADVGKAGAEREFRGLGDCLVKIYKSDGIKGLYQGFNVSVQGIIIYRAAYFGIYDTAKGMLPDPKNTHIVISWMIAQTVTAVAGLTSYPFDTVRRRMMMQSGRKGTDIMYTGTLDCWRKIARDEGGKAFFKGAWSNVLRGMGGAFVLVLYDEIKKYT
The assay can be described thus: pull-down; mWasabi-ANT2 pulled down from 1 mg lysate of transfected A549 cells with mWasabi antibody and Dynabeads; pulled-down protein incubated with 10 µg TP4 overnight at 4 °C, washed, immunoblot with TP4 antibody; only the binder purified.

For the molecule FIHHIIGGLFSAGKAIHRLIRRRRR [Tilapia piscidin 4 (TP4)], the binding result is “binds”.
